PMC3127956
Residue numbers refer to the chain shown, from its start. Names and notes keep the numbering of the source. These are yes or no findings as the source states them, for the method shown. Some results given as binding are weak or reduced against the parent protein; the word gives no strength. For some of these results: Sequences can lack the tags named with a protein.

The chains behind the UniProt entries cited, without tags or fusion partners.
UniProt O43741: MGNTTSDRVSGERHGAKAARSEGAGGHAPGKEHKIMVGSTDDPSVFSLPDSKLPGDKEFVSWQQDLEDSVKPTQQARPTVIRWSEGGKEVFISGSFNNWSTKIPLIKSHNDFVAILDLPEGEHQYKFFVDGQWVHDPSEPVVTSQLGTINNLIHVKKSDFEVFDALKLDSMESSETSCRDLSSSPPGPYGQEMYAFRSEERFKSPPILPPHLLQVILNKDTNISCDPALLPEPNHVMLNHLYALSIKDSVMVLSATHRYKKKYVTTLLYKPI
UniProt P62136: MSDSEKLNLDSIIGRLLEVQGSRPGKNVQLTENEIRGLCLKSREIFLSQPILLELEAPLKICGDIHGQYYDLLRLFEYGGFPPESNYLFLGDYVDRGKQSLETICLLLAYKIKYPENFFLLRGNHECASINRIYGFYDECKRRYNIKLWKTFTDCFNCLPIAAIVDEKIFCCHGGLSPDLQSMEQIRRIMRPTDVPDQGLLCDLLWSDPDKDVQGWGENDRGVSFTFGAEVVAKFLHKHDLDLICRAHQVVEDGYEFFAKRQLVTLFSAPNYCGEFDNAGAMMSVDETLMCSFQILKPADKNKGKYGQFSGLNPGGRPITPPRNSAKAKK

Assays:
Experiment in all cases: two-hybrid; yeast CTY10.5d co-transformed with pACT2-PTG (wild type or N249S) and LexA fusions (pBTM or pEG202 plasmids); β-galactosidase activity in permeabilized cells, Miller units
[1] = target: AMP-activated protein kinase subunit β2, LexA fusion (UniProt O43741)
[2] = target: T1, glycogen phosphorylase, muscular isoform (rabbit), LexA fusion (rabbit) (UniProt P00489)
T1 sequence: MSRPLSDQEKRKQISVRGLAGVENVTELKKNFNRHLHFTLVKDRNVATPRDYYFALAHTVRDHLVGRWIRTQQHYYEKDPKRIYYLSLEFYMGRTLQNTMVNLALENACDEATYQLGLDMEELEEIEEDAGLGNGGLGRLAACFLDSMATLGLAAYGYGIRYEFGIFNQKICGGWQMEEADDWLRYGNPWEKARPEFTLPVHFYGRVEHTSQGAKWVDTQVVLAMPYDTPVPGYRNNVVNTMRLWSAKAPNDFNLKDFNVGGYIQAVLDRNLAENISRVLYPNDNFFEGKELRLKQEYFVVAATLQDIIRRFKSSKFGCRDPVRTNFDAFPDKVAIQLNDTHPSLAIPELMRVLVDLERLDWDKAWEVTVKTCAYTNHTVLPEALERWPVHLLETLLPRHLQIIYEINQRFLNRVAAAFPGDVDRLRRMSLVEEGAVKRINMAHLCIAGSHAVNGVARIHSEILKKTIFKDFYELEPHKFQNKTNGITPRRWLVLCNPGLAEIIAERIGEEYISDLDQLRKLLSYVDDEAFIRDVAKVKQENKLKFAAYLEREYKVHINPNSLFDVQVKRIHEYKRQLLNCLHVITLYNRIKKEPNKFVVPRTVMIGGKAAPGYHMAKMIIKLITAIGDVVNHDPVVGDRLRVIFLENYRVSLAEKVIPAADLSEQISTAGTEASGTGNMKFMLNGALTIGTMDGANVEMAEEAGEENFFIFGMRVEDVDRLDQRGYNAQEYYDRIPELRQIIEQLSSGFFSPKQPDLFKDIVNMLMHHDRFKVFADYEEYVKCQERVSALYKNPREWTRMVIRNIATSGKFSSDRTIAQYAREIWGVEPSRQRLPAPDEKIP

[3] = target: T2, laforin, LexA fusion (UniProt O95278)
T2 sequence: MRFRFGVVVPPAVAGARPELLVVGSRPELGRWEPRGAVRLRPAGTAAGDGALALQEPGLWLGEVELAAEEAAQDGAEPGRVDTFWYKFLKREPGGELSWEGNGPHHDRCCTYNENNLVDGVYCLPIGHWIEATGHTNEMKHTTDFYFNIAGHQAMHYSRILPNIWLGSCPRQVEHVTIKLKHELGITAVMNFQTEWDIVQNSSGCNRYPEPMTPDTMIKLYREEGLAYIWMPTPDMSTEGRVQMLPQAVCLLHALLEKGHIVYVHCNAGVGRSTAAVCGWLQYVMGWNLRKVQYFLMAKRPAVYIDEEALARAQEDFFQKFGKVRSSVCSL

[4] = target: protein phosphatase 1 alpha, LexA fusion (UniProt P62136)

Measured: binding

B1: protein targeting to glycogen (PTG), wild type, in pACT2 (protein, UniProt Q9UQK1 1-317)
chain: MSCTRMIQVLDPRPLTSSVMPVDVAMRLCLAHSPPVKSFLGPYDEFQRRHFVNKLKPLKSCLNIKHKAKSQNDWKCSHNQAKKRVVFADSKGLSLTAIHVFSDLPEEPAWDLQFDLLDLNDISSALKHHEEKNLILDFPQPSTDYLSFRSHFQKNFVCLENCSLQERTVTGTVKVKNVSFEKKVQIRITFDSWKNYTDVDCVYMKNVYGGTDSDTFSFAIDLPPVIPTEQKIEFCISYHANGQVFWDNNDGQNYRIVHVQWKPDGVQTQMAPQDCAFHQTSPKTELESTIFGSPRLASGLFPEWQSWGRMENLASYR
binds: all assays above

B2: protein targeting to glycogen (PTG) N249S variant, in pACT2 (protein, UniProt Q9UQK1 1-317)
chain: B1 chain with N249S
binds: [1] | [2] | [4]
